Paper PMC4525285
Results are given in words; binding and its absence hold for the method and conditions named. For some assays here: In cells and extracts the contact can be indirect. Some entries that bind do so weakly or less than the wild type.

Sequences of proteins named here, by UniProt entry; tags and fusion partners are left off.
UniProt Q9NXL9: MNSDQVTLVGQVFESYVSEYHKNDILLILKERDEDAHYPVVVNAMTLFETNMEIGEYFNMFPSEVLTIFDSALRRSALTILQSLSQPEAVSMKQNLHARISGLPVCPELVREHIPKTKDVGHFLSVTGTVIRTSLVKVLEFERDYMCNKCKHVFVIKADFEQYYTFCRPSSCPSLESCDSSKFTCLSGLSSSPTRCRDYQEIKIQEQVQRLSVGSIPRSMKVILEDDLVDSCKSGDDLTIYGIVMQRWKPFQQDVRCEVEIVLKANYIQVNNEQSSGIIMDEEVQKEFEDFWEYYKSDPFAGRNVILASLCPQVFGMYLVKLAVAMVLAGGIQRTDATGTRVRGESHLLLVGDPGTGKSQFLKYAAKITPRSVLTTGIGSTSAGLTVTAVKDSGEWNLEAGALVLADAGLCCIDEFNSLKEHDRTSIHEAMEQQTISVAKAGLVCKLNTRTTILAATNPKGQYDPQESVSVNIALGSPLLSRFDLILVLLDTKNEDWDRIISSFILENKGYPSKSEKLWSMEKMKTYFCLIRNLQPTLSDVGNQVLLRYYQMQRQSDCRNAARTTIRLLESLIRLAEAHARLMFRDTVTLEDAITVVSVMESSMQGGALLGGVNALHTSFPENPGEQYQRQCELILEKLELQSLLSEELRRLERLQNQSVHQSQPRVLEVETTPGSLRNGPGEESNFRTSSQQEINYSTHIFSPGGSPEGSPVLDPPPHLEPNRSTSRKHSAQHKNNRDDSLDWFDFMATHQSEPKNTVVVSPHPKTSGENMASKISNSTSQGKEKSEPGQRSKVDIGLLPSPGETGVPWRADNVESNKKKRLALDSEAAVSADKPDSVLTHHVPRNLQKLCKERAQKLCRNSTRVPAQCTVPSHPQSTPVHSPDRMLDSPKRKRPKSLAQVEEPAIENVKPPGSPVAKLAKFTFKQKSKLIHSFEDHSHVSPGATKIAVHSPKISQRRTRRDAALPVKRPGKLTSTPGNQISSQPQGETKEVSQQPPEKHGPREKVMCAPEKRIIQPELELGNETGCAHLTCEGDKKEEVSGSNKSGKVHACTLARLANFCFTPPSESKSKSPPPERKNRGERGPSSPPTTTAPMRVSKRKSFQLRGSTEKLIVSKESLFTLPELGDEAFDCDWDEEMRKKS
UniProt Q92878: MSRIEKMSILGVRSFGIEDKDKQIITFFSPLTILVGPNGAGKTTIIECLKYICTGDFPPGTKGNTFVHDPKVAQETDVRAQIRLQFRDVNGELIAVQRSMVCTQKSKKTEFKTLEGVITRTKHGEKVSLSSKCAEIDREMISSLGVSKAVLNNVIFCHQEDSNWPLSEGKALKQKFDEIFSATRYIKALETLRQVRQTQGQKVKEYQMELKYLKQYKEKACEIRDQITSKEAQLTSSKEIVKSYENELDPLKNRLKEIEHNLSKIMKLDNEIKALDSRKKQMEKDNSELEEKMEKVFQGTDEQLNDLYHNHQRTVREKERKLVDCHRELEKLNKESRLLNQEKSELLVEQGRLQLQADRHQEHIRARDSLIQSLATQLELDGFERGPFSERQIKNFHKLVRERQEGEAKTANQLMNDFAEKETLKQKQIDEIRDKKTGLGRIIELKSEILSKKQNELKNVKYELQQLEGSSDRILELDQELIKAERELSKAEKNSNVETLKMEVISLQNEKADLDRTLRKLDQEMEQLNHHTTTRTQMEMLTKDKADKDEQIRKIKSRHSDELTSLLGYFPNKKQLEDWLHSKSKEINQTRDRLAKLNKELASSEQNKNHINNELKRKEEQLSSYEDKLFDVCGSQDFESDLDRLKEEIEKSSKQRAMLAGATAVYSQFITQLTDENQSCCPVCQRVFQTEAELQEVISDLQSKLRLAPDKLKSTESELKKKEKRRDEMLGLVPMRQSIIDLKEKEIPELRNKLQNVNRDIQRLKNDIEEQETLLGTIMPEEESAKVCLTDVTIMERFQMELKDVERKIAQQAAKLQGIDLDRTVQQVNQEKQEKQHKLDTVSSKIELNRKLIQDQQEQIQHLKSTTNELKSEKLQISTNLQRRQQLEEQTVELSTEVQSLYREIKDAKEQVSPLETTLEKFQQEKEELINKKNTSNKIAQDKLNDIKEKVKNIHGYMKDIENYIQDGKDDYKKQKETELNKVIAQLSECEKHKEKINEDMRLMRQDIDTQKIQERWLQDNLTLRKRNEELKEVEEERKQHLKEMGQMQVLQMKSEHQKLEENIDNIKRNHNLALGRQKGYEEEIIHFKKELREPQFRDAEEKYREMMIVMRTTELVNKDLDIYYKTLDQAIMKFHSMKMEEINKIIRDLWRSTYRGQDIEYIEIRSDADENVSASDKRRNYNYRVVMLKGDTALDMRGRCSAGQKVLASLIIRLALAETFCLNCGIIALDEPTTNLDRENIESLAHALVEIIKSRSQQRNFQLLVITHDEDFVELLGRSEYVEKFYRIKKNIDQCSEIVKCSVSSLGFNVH
UniProt Q6NRM6: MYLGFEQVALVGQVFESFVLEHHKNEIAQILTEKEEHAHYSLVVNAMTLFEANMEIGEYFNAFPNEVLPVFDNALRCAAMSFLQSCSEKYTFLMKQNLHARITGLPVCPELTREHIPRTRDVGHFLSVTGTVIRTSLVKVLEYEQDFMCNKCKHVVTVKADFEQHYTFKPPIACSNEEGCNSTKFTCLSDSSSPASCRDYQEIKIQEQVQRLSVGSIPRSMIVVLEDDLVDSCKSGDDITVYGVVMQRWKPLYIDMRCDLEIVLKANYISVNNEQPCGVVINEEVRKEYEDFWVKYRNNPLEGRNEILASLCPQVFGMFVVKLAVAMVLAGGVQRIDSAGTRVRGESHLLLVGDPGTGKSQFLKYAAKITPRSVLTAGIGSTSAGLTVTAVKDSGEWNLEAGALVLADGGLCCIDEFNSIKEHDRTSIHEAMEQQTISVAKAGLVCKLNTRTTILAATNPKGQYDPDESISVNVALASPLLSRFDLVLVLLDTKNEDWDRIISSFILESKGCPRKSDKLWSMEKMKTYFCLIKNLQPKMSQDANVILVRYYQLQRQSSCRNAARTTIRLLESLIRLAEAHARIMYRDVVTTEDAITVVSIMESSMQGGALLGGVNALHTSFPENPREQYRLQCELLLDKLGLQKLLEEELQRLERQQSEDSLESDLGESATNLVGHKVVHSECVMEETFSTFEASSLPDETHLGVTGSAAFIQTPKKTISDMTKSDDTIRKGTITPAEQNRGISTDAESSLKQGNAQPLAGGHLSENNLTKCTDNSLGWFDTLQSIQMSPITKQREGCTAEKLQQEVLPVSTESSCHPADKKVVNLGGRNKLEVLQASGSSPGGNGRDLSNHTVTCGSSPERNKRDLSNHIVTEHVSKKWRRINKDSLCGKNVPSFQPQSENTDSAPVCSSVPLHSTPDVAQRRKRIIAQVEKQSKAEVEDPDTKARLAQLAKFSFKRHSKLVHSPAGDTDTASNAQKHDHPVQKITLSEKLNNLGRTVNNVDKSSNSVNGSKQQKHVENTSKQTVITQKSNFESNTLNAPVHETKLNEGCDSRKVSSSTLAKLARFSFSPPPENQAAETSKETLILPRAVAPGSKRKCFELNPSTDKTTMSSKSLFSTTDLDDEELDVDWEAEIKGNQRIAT
UniProt O60934: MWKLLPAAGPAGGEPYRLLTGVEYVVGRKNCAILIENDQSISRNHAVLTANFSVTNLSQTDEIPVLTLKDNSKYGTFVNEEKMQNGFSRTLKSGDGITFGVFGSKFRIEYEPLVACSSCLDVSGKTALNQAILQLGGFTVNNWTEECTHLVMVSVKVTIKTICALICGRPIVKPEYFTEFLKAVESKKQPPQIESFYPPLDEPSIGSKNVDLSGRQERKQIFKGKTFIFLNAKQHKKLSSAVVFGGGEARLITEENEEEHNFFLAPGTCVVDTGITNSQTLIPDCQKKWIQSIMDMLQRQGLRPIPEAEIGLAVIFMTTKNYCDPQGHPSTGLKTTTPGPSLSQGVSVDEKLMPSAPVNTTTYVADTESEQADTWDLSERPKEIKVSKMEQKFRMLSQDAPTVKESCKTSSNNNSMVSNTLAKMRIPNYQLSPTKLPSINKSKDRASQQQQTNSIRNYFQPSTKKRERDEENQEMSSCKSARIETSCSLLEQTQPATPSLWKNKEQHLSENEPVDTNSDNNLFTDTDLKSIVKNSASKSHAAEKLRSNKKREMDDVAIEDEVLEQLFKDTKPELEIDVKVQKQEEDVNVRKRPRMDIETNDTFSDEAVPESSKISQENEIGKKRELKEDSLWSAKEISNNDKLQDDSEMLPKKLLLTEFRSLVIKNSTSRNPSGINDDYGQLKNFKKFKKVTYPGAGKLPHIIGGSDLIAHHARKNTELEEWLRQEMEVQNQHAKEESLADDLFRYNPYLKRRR
UniProt Q9UJA3: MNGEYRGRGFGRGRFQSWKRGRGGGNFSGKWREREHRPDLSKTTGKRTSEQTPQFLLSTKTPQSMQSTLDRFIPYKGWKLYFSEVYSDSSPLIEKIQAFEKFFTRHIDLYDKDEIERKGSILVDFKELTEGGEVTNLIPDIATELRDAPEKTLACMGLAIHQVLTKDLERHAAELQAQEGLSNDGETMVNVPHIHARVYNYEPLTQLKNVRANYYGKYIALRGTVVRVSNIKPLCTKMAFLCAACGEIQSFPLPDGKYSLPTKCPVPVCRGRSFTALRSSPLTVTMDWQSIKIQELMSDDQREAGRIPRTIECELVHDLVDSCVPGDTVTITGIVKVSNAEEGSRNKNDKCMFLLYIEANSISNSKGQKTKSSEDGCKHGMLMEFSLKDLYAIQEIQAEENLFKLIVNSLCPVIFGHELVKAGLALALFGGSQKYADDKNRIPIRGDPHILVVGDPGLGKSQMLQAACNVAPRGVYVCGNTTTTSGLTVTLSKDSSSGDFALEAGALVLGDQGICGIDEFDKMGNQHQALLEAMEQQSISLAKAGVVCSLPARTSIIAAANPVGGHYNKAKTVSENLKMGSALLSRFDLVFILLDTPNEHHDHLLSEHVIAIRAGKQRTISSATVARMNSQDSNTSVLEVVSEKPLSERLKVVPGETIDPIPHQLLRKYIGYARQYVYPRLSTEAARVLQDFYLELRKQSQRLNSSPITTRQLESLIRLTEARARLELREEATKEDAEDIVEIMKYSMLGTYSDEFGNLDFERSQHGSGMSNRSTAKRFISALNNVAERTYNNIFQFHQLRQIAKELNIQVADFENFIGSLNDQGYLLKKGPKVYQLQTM
UniProt Q5F310: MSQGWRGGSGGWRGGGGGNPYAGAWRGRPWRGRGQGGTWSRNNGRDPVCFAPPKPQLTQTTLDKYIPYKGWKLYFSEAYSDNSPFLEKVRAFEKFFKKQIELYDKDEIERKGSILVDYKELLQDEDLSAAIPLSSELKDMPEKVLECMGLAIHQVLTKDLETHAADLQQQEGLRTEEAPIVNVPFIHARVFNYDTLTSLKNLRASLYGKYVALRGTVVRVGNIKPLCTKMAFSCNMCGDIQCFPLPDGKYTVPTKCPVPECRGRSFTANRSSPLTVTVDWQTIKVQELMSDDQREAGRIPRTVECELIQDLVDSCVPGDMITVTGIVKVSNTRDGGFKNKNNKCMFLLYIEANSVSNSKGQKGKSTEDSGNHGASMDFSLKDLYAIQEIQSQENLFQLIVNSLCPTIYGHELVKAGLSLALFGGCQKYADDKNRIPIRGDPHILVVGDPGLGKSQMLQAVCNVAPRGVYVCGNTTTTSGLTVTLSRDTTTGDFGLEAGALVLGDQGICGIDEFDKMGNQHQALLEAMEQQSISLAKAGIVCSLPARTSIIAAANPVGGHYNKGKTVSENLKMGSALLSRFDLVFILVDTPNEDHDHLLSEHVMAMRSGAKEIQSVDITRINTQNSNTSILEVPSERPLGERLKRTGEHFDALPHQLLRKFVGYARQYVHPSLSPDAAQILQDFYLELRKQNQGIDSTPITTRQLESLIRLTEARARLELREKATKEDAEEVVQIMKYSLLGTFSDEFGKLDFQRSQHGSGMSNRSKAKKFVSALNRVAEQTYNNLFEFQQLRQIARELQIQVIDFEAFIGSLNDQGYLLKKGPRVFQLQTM

Columns and labels:
[1] = biological target: MCM9 (human (endogenous in HEK293T)) (UniProt Q9NXL9); assay: co-IP; endogenous MCM9 or RAD50 immunoprecipitated from HEK293T lysates (3 mg) with anti-MCM9 or anti-RAD50 antibody and protein G agarose, in the presence of EtBr (10 ug/ml); lysis buffer 20 mM Tris-HCl pH 7.5, 100 mM NaCl, 1% NP-40, 1 mM ATP; immunoblot
[2] = biological target: RAD50 (human (endogenous in HEK293T)) (UniProt Q92878); assay: as above
[3] = biological target: His-tagged Xenopus MCM9 wild type (Xenopus) (UniProt Q6NRM6); assay: co-purification (Ni-NTA, heparin and Q columns) with silver stain and immunoblot; His-tagged Xenopus MCM8 and MCM9 (WT or WA) co-expressed in Sf9 cells and purified; purified preparation silver-stained and immunoblotted with anti-human MRE11 antibody

binding [1]	binding [2]	Substance	further results
binds		NBS1 (from UniProt O60934 1-754)	
	binds	MCM9 (from UniProt Q9NXL9 1-1143)	
binds		RAD50 (from UniProt Q92878 1-1312)	
	binds	MCM8 (from UniProt Q9UJA3 1-840)	
		His-tagged Xenopus MCM8 (from UniProt Q5F310 1-831)	binding [3]: binds
